Experimental data: PMC7862700
This is one part of the list. The source does not settle which construct or isoform was used.

Biological target: T1, ETV4 (UniProt P43268)
T1 sequence: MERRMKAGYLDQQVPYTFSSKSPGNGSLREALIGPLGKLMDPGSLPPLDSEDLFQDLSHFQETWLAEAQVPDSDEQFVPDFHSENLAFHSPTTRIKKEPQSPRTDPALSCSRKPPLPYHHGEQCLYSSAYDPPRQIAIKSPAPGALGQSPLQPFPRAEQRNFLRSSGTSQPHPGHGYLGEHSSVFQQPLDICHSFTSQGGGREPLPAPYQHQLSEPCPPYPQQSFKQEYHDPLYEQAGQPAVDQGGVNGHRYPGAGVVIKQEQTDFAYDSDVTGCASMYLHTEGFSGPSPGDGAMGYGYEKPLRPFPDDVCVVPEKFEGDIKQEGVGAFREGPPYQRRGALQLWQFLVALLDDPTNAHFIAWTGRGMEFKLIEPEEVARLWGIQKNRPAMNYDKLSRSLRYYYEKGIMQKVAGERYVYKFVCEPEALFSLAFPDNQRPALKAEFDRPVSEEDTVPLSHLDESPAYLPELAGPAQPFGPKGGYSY
Assay: DAPPL (digital affinity profiling via proximity ligation, sequencing)
Conditions: 10 mM Tris-HCl pH 7.5, 50 mM NaCl, 1 mM DTT, 4% glycerol, room temperature, 30 min; GST-TFs on glutathione beads, 16-mer random dsDNA library, 0.1% …; high values mean tight binding; double strand, one strand shown; scale: fold enrichment (6-mer frequency, TF over GST control)

Row | Sequence | binding signal
1 | TCAAGT | 1.1
2 | CTCCCC | 1.51
3 | AAGCTA | 1.2
4 | AGTATT | 1.15
5 | ACCCTG | 1.02
6 | GGTTCA | 0.978
7 | ACCCCC | 1.2
8 | CTTCTC | 1.44
9 | TTCTCT | 1.39
10 | TAGATG | 1.25
11 | CTAGTA | 1.09
12 | GTTCTG | 1.15
13 | CAATGC | 1.22
14 | ATCCGG | 2.7
15 | ATCCCA | 1.06
16 | GCTACG | 1.27
17 | AAGTTA | 1.21
18 | TGTACG | 1.21
19 | TACGAC | 1.39
20 | ACAATG | 1.14

Row | Sequence | binding signal
21 | CGCTCG | 1.17
22 | GATGCA | 1.16
23 | AAATAG | 1.11
24 | ATCTGG | 1.22
25 | CCTTCG | 1.36
26 | TACGTC | 1.18
27 | CATCCT | 1.61
28 | TAGTAT | 1.3
29 | CTACGG | 1.38
30 | TATAGC | 1.13
31 | AACCCC | 1.12
32 | CCGTTC | 1.46
33 | TTTGTC | 1.21
34 | ATTCAC | 1.28
35 | TTTCAA | 1.32
36 | TGGGAT | 1.13
37 | CCATAC | 1.21
38 | GGATTT | 1.26
39 | CCTTAA | 1.31
40 | CCCTCA | 1.25

Two entries drawn at random from the list so far:
Row | Sequence | binding signal
35 | TTTCAA | 1.32
33 | TTTGTC | 1.21
